{"source": "PubChem BioAssay AID1259254, NCATS – 2017", "aim": "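Genome-wide screen for genes that prevent DNA re-replication in cancer cells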 (primary screen)", "cells": "human HCT116 colorectal cancer cells", "reagent": "single siRNA against human genes", "duration": "3 days", "measured": "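Imaged Hoechst DNA stain sorts each cell into a cycle phase by DNA amount; per plate, G2 fraction set to 0% for non-targeting and 100% for GMNN siRNA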", "direction": "G2 robust z-score and G2 cells, % of GMNN control: higher = more G2 cells, more excess DNA replication", "call rule": "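An siRNA counts as active if its G2 robust z-score lies at least 5 MADs above the screen median; here such calls match roughly 38% of GMNN control or more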", "note": "This is an unselected part of about 59,000 deposited reagents. In the full data, about 1,550 (2.6%) were called active. 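G2 share is only a proxy for re-replication; each gene was hit by three separate siRNAs, and active genes were retested.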 Entries without a mark were called inactive. Reagents against one gene are numbered here. Further read-outs or replicates are left out here. Not given: the amount of reagent."}
{"target":"GRXCR1 (glutaredoxin and cysteine rich domain containing 1)","reagent":1,"G2 robust z-score":-0.821,"G2 cells, % of GMNN control":-2.81}
{"target":"GRXCR1 (glutaredoxin and cysteine rich domain containing 1)","reagent":2,"G2 robust z-score":0.267,"G2 cells, % of GMNN control":4.84}
{"target":"GRXCR1 (glutaredoxin and cysteine rich domain containing 1)","reagent":3,"G2 robust z-score":3.27,"G2 cells, % of GMNN control":25.9}
{"target":"MMP27 (matrix metallopeptidase 27)","reagent":1,"G2 robust z-score":-1.45,"G2 cells, % of GMNN control":-7.24}
{"target":"MMP27 (matrix metallopeptidase 27)","reagent":2,"G2 robust z-score":0.179,"G2 cells, % of GMNN control":4.23}
{"target":"MMP27 (matrix metallopeptidase 27)","reagent":3,"G2 robust z-score":0.21,"G2 cells, % of GMNN control":4.45}
{"target":"PPP2R2B (protein phosphatase 2 regulatory subunit Bbeta)","reagent":1,"G2 robust z-score":"5.47 (active)","G2 cells, % of GMNN control":41.5}
{"target":"PPP2R2B (protein phosphatase 2 regulatory subunit Bbeta)","reagent":2,"G2 robust z-score":0.0678,"G2 cells, % of GMNN control":3.44}
{"target":"PPP2R2B (protein phosphatase 2 regulatory subunit Bbeta)","reagent":3,"G2 robust z-score":-0.438,"G2 cells, % of GMNN control":-0.117}

Records listed above marked active, once more:
{"target":"PPP2R2B (protein phosphatase 2 regulatory subunit Bbeta)","reagent":1,"G2 robust z-score":"5.47 (active)","G2 cells, % of GMNN control":41.5}

Next reagents follow.
{"target":"TMEM68 (transmembrane protein 68)","reagent":1,"G2 robust z-score":-0.76,"G2 cells, % of GMNN control":-2.38}
{"target":"TMEM68 (transmembrane protein 68)","reagent":2,"G2 robust z-score":0.671,"G2 cells, % of GMNN control":7.68}
{"target":"TMEM68 (transmembrane protein 68)","reagent":3,"G2 robust z-score":0.53,"G2 cells, % of GMNN control":6.69}
{"target":"FAHD2B (fumarylacetoacetate hydrolase domain containing 2B)","reagent":1,"G2 robust z-score":0.199,"G2 cells, % of GMNN control":4.37}
{"target":"FAHD2B (fumarylacetoacetate hydrolase domain containing 2B)","reagent":2,"G2 robust z-score":-0.552,"G2 cells, % of GMNN control":-0.917}
{"target":"FAHD2B (fumarylacetoacetate hydrolase domain containing 2B)","reagent":3,"G2 robust z-score":1.68,"G2 cells, % of GMNN control":14.8}
{"target":"OR3A3 (olfactory receptor family 3 subfamily A member 3)","reagent":1,"G2 robust z-score":-0.404,"G2 cells, % of GMNN control":0.123}
{"target":"OR3A3 (olfactory receptor family 3 subfamily A member 3)","reagent":2,"G2 robust z-score":-0.274,"G2 cells, % of GMNN control":1.04}
{"target":"OR3A3 (olfactory receptor family 3 subfamily A member 3)","reagent":3,"G2 robust z-score":-0.128,"G2 cells, % of GMNN control":2.07}
{"target":"PLEKHD1 (pleckstrin homology and coiled-coil domain containing D1)","reagent":1,"G2 robust z-score":-0.815,"G2 cells, % of GMNN control":-2.76}
{"target":"PLEKHD1 (pleckstrin homology and coiled-coil domain containing D1)","reagent":2,"G2 robust z-score":-0.808,"G2 cells, % of GMNN control":-2.72}
{"target":"PLEKHD1 (pleckstrin homology and coiled-coil domain containing D1)","reagent":3,"G2 robust z-score":-1.06,"G2 cells, % of GMNN control":-4.5}
{"target":"F2RL2 (coagulation factor II thrombin receptor like 2)","reagent":1,"G2 robust z-score":1.82,"G2 cells, % of GMNN control":15.8}
{"target":"F2RL2 (coagulation factor II thrombin receptor like 2)","reagent":2,"G2 robust z-score":-0.301,"G2 cells, % of GMNN control":0.849}
{"target":"F2RL2 (coagulation factor II thrombin receptor like 2)","reagent":3,"G2 robust z-score":-0.815,"G2 cells, % of GMNN control":-2.76}
